Binding screen against folded nucleic acids

Calls as published in the ROBIN set (doi:10.1002/anie.202211358).

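Compounds were printed on reactive glass slides in duplicate spots, a dye-labelled oligonucleotide was laid over them, and the fluorescence left after washing was read. For the PreQ1, TPP and SAM-II riboswitches the laboratory earlier reported (doi:10.1038/s41467-019-09493-3) 1 µM RNA, 2 h, and a rule that included a mean Z-score above 3 (spot signal-to-noise against the whole library), a score well above that on a control array, and duplicate spots agreeing (coefficient of variation under 100). The data file gives only the calls; its cut-offs may differ, and compounds hitting several targets are kept. The calls come from the array alone, and fixing a compound to the slide can hide its binding.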 Key: Y = hit, N = tested without a hit. Compounds were drawn at random from those tested, without regard to their results. A target missing from an entry has no call listed here. A dash means that no call is listed here.

Oligonucleotides screened, 5′ to 3′:
T1: TPP riboswitch RNA three-way junction, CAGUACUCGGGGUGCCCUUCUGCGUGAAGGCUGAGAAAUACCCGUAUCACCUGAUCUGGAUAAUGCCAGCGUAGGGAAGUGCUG. Hit rate about 0.7% of about 24,000 compounds.
T2: SAM-II riboswitch RNA pseudoknot, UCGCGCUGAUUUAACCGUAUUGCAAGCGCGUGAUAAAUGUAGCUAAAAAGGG. Hit rate about 1% of about 21,000 compounds.
T3: PreQ1 riboswitch RNA pseudoknot, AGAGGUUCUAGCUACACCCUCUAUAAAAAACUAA. From B. subtilis. Hit rate about 0.7% of about 24,000 compounds.

compound | T1 | T2 | T3
Cc1csc(C2=C(N)N(C3CCCc4ccccc43)CC2=O)n1 (stereo not given) | N | - | N
COc1cc(OC)c2nc(C)cc(N)c2c1 | N | N | N
Nc1ncccc1CN1CCN(C(=O)CO)CC(C(=O)O)C1 (stereo not given) | N | N | N
Cn1nc(C(=O)N2Cc3ccccc3C(O)C2)cc1-c1cccs1 (stereo not given) | N | N | N
CCn1c(N)c(C(=O)NC)sc1=S | N | N | N
CCC(O)c1nc2ccccc2n1CCCOc1cccc(C)c1C (stereo not given) | N | - | N
CN(C)C(=O)c1cc2cc(NC(=O)[C@H]3CC[C@@H](N)C3)ccc2s1 | N | N | N
CC(=O)Nc1cccc(-c2csc(CN3CCNCC3)c2)c1 | N | N | N
COc1ccc(C(=S)N2CCN(c3ccccc3C)CC2)cc1 | N | N | N
CNc1cc(-c2ccccc2)nc2c(-c3ccccc3)c(C)nn12 | N | - | N
Nc1c(C(=O)N2CCCC2)sc2nc(N3CCCC3)c3c(c12)CCCC3 | N | - | N
CCCN(Cc1nccn1C)c1nc(CCN)nc2ccccc12 | N | N | N
COc1cccc(-c2nc(-c3ccc(N)cc3)n[nH]2)c1 | N | N | N
COc1cccc([C@@H]2C[C@H](c3ccccc3Cl)n3nc(N)nc3N2)c1 | N | N | N
c1ccc(-c2nc3c(s2)CNCC3)cc1 | N | N | N
CC1(C)Cc2cc(C3NCCc4[nH]cnc43)ccc2O1 (stereo not given) | N | N | N
O=C(Nc1ncc(-c2cc(C(F)F)nn2-c2c(Cl)cccc2Cl)s1)C1CC1 | N | N | N
Cc1ccc(C2(CN(C)CC3Cc4ccccc4O3)CCNCC2)nc1 (stereo not given) | N | N | N
c1ccc2c(c1)CCCC2Nc1ncnc2c1nc1n2CCCCC1 (stereo not given) | N | - | N
O=C(c1cnc(Nc2ccccc2)nc1)N1CCOC2(CNCCOC2)C1 (stereo not given) | N | N | N
O=C1CSC(=O)N1CC(O)COc1ccc(OCC(O)CN2C(=O)CSC2=O)cc1 (stereo not given) | N | N | N
Cc1nc(C(F)(F)F)nc(-c2ccccc2CO)c1C | N | N | N
C=CCn1c(N)cc(=O)nc1SC(C)C(=O)Nc1ccccc1 (stereo not given) | N | N | N
O=C(CC1COCCN1)N1CCN(c2ncnc3ccccc23)CC1 (stereo not given) | N | N | N
COc1ccc(OC)c(C2C(C(C)=O)=C(O)C(=O)N2CCO)c1 (stereo not given) | N | N | N
Cc1cc(Nc2ccccc2)n2nc(-c3ccc(Cl)cc3)nc2n1 | N | - | Y
Cc1ccc(Nc2nc3ccccc3n3cnnc23)cc1Cl | N | N | N
CCCn1c(CNc2ccc(Br)cc2)nc2ccccc21 | N | N | N
CN(CCc1cn[nH]c1)C(=O)c1cc(CN2CCC(O)CC2)on1 | N | N | N
N#CC1=C(N)Oc2c(c(=O)[nH]c3ccccc23)C1c1ccsc1 (stereo not given) | N | N | N
FC(F)(F)c1cccc(Nc2ncnc3ccccc23)c1 | N | N | N
Cc1noc(N)c1C(=O)Nc1ccc(F)cc1 | N | N | N
Cn1c(-c2ccc(F)cc2)cnc1NCc1ccc(Br)cc1 | N | N | N
COC(=O)C1(F)C(=O)NC(=O)NC1OC (stereo not given) | N | N | N
CS(=O)(=O)n1nc(OC(=O)c2ccc(Cl)cc2)cc1N | N | N | N
N#Cc1c(-c2cccn2S(=O)(=O)c2ccccc2)cc(-c2cc[nH]c2)nc1N | N | N | N
CCOc1ccccc1Nc1nc(-c2ccc(OC)c(OC)c2)cs1 | N | N | N
N=C(N=C(N)N)N1CCOCC1 | N | N | N
COC(=O)c1ccc(NC(=O)c2nccnc2CO)cc1 | N | N | N
CCN(Cc1ccc(C(=O)Nc2ccc(F)cc2F)cc1)[C@H]1COC[C@@H]1O | N | N | N
CC(C)N(C(=O)c1cccc([N+](=O)[O-])c1)C(C)C | N | N | N
CSc1nc(-c2ccc(Cl)cc2)c(C#N)c(N(CCO)CCO)n1 | N | - | N
COCc1ccc(C(=O)N(CCO)Cc2nccs2)o1 | N | N | N
CCCc1nc2nc(C)cc(Nc3ccc(C)c(F)c3)n2n1 | N | N | N
CCCc1cnc(C)nc1N1CCC(NCCN2CCNC2=O)CC1 | N | N | N
O=C(C=Cc1ccc(Cl)cc1Cl)NCCNc1ccc(C(F)(F)F)cc1[N+](=O)[O-] | N | N | N
O=C1Nc2ccc(S(=O)(=O)NCCO)c3cccc1c23 | N | N | N
C=CCn1cc(CNCC2(Cn3nc(C)cc3C)CC2)c(C)n1 | N | N | N
COCCCNCc1ccccc1C.Cl | N | N | N
CC1=CC(C)(C)Nc2c(C(=O)N3CCOCC3)cc(C)cc21 | N | N | N
Cc1cnc(CNC2CCN(c3cnc4ccccc4n3)CC2)cn1 | N | N | N
Cc1cc(NCCCO)n2c(nc3ccccc32)c1C#N | N | N | N
Cn1c(=O)n(C)c2cc(CNc3ccc(Br)cc3)ccc21 | N | - | N
CCOc1ccc(-n2nc(CO)c(C(=O)NCc3cccc(OC)c3)n2)cc1 | N | - | N
O=C(CSc1nnc2c(n1)[nH]c1ccccc12)N(CCO)CCO | N | N | N
CNc1nc(N2CCCCCC2)nc(-n2cnc(SC)n2)n1 | N | - | N
Nc1scc[n+]1CC(=O)[O-] | N | N | N
CCc1nccn1CCC(=O)N1CCNCC1C(=O)N1CCCC1 (stereo not given) | N | N | N

7 of the entries, repeated:

- Cc1nc(C(F)(F)F)nc(-c2ccccc2CO)c1C | T1: N; T2: N; T3: N
- Cc1cc(NCCCO)n2c(nc3ccccc32)c1C#N | T1: N; T2: N; T3: N
- N#CC1=C(N)Oc2c(c(=O)[nH]c3ccccc23)C1c1ccsc1 (stereo not given) | T1: N; T2: N; T3: N
- CS(=O)(=O)n1nc(OC(=O)c2ccc(Cl)cc2)cc1N | T1: N; T2: N; T3: N
- COC(=O)C1(F)C(=O)NC(=O)NC1OC (stereo not given) | T1: N; T2: N; T3: N
- Cc1cnc(CNC2CCN(c3cnc4ccccc4n3)CC2)cn1 | T1: N; T2: N; T3: N
- C=CCn1c(N)cc(=O)nc1SC(C)C(=O)Nc1ccccc1 (stereo not given) | T1: N; T2: N; T3: N